Measurements from patent US20040077845A1, “Modifier” (priority 2001, published 2004).
Some compounds share one wording; it may come from a single statement.

What follows are compounds tested on proteins (assay: introduction of galactose residues into proteins by separated oligosaccharides (similar treatments)). Details: similar treatments as Example 2.
Assay type: biochemical

Compound	introduction of galactose residues into proteins
OC[C@H]1O[C@@H](O[C@H]2[C@H]3OC[C@@H]2OC(O)[C@H]3O)[C@H](O)[C@@H](O)[C@H]1O (mixture of isomers) [agarobiose]	galactose residues were introduced into proteins
OC[C@H]1O[C@@H](O[C@H]2[C@H]3OC[C@@H]2O[C@@H](O[C@H]2[C@@H](O)[C@@H](CO)O[C@@H](O[C@H]4[C@H]5OC[C@@H]4OC(O)[C@H]5O)[C@@H]2O)[C@H]3O)[C@H](O)[C@@H](O)[C@H]1O (some centres unmarked) [agarotetraose]	galactose residues were introduced into proteins
O=CC(O)[C@H]1OC[C@@H](O)C1O[C@@H]1O[C@H](CO)[C@H](O)[C@H](O)[C@H]1O (some centres unmarked) [carrabiose]	galactose residues were introduced into proteins
agarooctaose	galactose residues were introduced into proteins
agaropentaose	galactose residues were introduced into proteins
carraoctaose	galactose residues were introduced into proteins
carrapentaose	galactose residues were introduced into proteins
carratetraose	galactose residues were introduced into proteins
